According to publication PMC12675009:
These are yes or no findings as the source states them, for the method shown. Binding seen in cells or lysates may run through a third protein. Some binding calls cover weakened binding; strength is not graded here. Sequences can lack the tags named with a protein.

Sequences of proteins named here, by UniProt entry; tags and fusion partners are left off. Residues count along the entry.
UniProt Q9NZQ7, residues 19-290: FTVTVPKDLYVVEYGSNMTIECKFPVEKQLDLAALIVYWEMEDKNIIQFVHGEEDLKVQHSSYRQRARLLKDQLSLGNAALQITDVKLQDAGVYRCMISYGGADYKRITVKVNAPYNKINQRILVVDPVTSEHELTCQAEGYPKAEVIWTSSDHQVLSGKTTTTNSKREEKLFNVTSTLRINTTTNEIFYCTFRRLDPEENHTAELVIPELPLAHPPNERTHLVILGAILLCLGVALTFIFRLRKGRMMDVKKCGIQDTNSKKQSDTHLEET

Target: GFP-PD-L1 (full length PD-L1, pEGFP-N1/PD-L1) (UniProt Q9NZQ7)
Assay: co-IP; truncation mapping in transfected cells (cell line not stated): USP32 truncations with full length PD-L1; PD-L1 truncation with full length USP32

B1: USP32 truncation U2 (367-585), HA-tagged (domain or fragment, UniProt Q8NFA0 367-585)
chain: RPATPEEEGQIIRGWLERESRYGLQAGHNWFIISMQWWQQWKEYVKYDANPVVIEPSSVLNGGKYSFGTAAHPMEQVEDRIGSSLSYVNTTEEKFSDNISTASEASETAGSGFLYSATPGADVCFARQHNTSDNNNQCLLGANGNILLHLNPQKPGAIDNQPLVTQEPVKATSLTLEGGRLKRTPQLIHGRDYEMVPEPVWRALYHWYGANLALPRPVI
- binding: binds
